Measured values taken from the supplement of paper PMC10849652.
This is one part of the list.

Sequences of proteins named here, by UniProt entry; tags and fusion partners are left off. A change or cut given only in a name is not applied to a line headed by its entry.
UniProt Q9ULR0: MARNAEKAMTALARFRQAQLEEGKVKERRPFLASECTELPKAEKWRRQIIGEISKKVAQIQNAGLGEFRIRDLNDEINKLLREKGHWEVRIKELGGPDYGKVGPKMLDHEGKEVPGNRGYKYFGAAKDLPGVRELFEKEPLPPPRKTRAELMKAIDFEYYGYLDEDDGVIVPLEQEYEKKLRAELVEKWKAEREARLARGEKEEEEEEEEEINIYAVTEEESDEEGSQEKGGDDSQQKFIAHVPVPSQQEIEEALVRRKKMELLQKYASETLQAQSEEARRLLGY
UniProt Q96AB3: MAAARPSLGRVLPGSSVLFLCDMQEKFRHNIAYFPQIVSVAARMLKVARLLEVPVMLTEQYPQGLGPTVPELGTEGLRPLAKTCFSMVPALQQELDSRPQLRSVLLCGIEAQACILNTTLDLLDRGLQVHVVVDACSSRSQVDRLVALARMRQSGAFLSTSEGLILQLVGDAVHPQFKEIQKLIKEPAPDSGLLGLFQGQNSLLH
UniProt P78318: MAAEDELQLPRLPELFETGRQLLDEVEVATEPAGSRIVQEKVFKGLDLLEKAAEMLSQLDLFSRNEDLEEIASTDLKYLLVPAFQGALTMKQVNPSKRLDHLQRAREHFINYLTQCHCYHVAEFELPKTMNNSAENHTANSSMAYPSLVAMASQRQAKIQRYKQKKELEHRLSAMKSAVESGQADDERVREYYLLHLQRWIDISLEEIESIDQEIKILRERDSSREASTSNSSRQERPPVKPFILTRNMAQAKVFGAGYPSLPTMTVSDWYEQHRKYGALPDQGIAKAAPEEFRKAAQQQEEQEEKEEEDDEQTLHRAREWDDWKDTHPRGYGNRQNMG
UniProt Q16891: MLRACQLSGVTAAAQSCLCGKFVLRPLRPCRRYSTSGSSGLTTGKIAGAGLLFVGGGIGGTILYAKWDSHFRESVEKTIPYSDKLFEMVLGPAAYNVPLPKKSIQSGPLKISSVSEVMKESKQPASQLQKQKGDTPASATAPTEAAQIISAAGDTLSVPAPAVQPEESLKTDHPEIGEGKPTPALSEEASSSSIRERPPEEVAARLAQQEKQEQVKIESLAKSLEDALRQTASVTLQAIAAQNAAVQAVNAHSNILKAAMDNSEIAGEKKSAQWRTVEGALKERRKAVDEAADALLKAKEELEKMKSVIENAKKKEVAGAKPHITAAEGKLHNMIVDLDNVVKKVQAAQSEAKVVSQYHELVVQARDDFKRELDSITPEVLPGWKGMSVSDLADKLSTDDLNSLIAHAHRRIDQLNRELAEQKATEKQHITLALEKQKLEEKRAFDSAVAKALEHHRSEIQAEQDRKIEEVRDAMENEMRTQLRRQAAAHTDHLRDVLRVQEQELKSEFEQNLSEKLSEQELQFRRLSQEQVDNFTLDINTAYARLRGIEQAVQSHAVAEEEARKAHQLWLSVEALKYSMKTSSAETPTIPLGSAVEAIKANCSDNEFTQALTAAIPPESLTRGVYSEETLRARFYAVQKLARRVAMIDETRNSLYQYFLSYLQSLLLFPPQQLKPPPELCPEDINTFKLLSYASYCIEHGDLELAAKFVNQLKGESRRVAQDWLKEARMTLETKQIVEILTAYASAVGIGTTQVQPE
UniProt P48200: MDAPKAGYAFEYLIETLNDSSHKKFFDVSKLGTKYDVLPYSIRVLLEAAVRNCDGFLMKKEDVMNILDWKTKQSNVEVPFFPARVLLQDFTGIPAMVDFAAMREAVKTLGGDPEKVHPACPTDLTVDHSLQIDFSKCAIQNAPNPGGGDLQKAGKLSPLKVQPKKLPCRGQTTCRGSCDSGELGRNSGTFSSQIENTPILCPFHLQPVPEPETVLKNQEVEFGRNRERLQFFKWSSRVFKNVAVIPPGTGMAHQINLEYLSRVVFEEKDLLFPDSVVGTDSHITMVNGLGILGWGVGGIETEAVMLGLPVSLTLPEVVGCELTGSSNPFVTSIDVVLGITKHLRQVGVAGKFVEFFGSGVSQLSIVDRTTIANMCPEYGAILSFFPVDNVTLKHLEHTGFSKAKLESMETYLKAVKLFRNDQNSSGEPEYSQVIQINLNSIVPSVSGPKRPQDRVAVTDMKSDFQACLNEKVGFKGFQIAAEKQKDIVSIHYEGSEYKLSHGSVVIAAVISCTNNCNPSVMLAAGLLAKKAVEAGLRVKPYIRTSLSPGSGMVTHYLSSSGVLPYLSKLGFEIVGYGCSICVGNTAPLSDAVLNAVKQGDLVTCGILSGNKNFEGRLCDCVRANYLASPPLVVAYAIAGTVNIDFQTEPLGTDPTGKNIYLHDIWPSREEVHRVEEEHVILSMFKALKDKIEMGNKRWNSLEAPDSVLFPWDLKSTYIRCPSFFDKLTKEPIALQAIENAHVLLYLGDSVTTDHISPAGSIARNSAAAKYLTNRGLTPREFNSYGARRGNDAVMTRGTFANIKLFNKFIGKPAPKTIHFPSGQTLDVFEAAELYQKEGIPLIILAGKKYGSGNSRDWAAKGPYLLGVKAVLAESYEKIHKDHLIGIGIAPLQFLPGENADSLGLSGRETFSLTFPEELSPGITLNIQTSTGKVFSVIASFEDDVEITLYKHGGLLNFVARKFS
UniProt Q96HW7, whole entry, looked up: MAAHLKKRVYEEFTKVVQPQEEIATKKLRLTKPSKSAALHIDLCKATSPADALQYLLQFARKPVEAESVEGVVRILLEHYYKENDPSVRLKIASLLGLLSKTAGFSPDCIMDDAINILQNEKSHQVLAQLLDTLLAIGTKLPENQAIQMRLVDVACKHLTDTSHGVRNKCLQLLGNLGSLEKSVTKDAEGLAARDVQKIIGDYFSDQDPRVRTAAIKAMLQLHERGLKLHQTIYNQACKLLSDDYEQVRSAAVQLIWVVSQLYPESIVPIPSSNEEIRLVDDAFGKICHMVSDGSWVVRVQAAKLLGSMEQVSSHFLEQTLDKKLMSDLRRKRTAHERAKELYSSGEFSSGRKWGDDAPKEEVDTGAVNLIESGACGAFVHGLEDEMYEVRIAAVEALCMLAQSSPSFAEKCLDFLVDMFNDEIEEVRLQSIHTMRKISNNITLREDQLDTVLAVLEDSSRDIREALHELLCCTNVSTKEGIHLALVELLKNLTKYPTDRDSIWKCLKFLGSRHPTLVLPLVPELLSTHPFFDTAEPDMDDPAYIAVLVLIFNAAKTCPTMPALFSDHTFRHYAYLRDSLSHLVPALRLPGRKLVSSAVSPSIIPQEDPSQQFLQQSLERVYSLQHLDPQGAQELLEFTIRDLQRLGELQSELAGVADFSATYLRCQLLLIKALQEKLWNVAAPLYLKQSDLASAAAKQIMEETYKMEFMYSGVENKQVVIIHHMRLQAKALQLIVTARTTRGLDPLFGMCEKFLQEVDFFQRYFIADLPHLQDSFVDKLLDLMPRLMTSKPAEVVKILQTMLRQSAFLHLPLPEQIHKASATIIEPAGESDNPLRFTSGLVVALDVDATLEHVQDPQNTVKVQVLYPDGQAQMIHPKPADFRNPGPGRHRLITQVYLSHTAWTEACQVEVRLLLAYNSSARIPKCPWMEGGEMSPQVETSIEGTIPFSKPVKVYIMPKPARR
UniProt Q96J02: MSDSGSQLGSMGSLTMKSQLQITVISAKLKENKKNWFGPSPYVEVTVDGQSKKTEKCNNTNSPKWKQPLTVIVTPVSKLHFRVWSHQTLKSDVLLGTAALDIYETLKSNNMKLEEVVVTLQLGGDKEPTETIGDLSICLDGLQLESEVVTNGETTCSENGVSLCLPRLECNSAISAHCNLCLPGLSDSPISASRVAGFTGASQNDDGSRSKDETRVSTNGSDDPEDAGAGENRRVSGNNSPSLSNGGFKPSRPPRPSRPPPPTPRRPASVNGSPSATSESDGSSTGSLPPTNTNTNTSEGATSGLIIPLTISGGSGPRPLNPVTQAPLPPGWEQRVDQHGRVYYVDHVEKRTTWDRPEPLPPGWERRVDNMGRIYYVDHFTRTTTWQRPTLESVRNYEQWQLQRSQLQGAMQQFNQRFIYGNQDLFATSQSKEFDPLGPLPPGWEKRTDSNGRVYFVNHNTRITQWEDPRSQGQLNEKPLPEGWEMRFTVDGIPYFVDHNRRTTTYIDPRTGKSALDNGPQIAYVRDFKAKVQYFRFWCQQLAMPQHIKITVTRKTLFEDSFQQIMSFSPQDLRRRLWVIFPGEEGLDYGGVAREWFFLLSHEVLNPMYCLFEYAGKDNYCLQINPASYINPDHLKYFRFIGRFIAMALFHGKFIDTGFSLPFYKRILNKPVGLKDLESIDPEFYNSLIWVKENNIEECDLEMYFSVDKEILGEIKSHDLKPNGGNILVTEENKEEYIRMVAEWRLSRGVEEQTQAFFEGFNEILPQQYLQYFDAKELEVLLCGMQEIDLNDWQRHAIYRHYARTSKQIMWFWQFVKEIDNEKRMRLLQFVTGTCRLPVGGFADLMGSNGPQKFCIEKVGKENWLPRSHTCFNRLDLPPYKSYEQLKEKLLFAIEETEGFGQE
UniProt Q9P2H3, whole entry, looked up: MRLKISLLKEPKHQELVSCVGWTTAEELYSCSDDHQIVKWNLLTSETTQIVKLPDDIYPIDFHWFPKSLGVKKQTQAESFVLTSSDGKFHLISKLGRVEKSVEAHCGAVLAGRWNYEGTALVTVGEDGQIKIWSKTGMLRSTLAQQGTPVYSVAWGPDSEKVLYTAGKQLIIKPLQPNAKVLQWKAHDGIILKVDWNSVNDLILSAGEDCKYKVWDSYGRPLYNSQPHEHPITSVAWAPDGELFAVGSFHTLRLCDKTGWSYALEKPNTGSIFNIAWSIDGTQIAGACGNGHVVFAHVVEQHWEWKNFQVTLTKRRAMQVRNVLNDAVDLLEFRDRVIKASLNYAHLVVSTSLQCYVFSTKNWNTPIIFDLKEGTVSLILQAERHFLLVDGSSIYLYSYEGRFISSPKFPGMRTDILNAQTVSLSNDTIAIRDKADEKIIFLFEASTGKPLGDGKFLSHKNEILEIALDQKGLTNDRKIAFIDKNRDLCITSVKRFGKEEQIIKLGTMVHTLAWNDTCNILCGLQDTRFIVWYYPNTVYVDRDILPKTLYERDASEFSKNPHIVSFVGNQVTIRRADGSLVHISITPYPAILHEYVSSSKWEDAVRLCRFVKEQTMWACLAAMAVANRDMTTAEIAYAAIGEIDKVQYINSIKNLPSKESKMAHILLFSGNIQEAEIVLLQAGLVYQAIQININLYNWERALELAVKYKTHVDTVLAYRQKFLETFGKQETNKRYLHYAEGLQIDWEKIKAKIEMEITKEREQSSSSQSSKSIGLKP
UniProt O00425, whole entry, looked up: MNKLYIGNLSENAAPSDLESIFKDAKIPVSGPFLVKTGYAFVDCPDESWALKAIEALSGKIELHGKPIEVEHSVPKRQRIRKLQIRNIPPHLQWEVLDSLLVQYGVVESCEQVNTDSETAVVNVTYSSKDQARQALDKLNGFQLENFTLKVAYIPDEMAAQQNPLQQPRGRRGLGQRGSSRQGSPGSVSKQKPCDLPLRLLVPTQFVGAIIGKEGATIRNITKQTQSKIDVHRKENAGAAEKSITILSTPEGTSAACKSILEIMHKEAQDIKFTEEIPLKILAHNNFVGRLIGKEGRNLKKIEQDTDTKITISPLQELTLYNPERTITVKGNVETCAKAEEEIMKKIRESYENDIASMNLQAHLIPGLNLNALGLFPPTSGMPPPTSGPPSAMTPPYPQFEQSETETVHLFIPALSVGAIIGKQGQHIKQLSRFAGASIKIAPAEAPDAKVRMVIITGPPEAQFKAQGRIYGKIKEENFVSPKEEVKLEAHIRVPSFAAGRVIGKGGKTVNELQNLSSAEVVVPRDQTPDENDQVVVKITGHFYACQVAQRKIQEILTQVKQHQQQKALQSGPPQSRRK
UniProt Q8TB96: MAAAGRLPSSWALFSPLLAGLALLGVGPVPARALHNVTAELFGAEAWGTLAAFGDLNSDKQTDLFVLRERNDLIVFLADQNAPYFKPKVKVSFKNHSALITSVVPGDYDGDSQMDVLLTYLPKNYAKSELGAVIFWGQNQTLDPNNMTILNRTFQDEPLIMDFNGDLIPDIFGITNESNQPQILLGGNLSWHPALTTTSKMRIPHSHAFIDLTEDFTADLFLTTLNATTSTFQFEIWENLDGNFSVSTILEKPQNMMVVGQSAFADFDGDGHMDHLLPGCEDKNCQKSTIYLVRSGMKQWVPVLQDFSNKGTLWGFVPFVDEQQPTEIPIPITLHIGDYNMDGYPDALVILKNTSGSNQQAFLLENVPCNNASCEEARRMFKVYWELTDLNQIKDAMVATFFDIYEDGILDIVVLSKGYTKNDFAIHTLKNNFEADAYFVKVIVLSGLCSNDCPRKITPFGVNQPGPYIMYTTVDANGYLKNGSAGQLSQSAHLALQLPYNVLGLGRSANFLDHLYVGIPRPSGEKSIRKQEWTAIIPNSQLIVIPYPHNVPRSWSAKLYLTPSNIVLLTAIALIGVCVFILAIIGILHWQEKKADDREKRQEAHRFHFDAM

Assays:
Assay in all cases: log2 fold change, soluble protein after heating vs DMSO (PISA); higher = thermal stabilisation; K562 cells, 10 uM, 30 min; active = over 0.2 and 3.5 SD of the protein, either way, in both replicates (recomputed)
[1] = compound: CC1=C(C=C(C=C1)NC(=O)C2=CC(=CC=C2)C(C)(C)C#N)NC3=CC4=C(C=C3)N=CN(C4=O)C
Procedure, shortened: (§1)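 K562 cells at 2×10^6 cells/mL were treated with 10 μM compound for 30 min. Aliquots were heated for 3 min across 48°C-58°C, pooled, and extracted in PBS with 0.5% NP-40 at 4°C; soluble protein was the supernatant after 21,000xg for 90 min. Soluble protein was quantified by TMTpro 16plex LC-MS/MS with channel sums equalised, and reported as log2 fold change in thermal stability against DMSO controls, with values from duplicates.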

[2] = compound: CC1=C(C=C(C=C1)NC(=O)C2=CC(=CC=C2)N(C)C)NC(=O)C3=CC=C(C=C3)O
Procedure, shortened: as §1

[3] = compound: CC1=CC=C(C=C1)SC2=C3C=C(SC3=CN=C2)C(=O)N
Procedure, shortened: as §1

[4] = compound: CC1=NC(=CC=C1)C2=C(N=C(N2)C(C)(C)C)C3=CC4=NC=CN=C4C=C3
Procedure, shortened: as §1

Nexturastat A = compound: CCCCN(Cc1ccc(C(=O)NO)cc1)C(=O)Nc1ccccc1 [Nexturastat A]
Procedure, shortened: as §1

vemurafenib = compound: CCCS(=O)(=O)Nc1ccc(F)c(C(=O)c2c[nH]c3ncc(-c4ccc(Cl)cc4)cc23)c1F [vemurafenib]
Procedure, shortened: as §1

[5] = compound: CCCS(=O)(=O)Nc1ccc(F)c(C(=O)c2c[nH]c3ncc(Cl)cc23)c1F
Procedure, shortened: as §1

[6] = compound: CCCc1cc(C)[nH]c(=O)c1CNC(=O)c1cc(-c2ccnc(N3CCN(C)CC3)c2)cc2c1cnn2C(C)C
Procedure, shortened: as §1

givinostat = compound: CCN(CC)Cc1ccc2cc(COC(=O)Nc3ccc(C(=O)NO)cc3)ccc2c1 [givinostat]
Procedure, shortened: as §1

barasertib = compound: CCN(CCCOc1ccc2c(Nc3cc(CC(=O)Nc4cccc(F)c4)[nH]n3)ncnc2c1)CCOP(=O)(O)O [barasertib]
Procedure, shortened: as §1

[7] = compound: CC[C@@H]1C(=O)N(C)c2cnc(Nc3ccc(C(=O)NC4CCN(C)CC4)cc3OC)nc2N1C1CCCC1
Procedure, shortened: as §1

volasertib = compound: CC[C@@H]1C(=O)N(C)c2cnc(Nc3ccc(C(=O)N[C@H]4CC[C@H](N5CCN(CC6CC6)CC5)CC4)cc3OC)nc2N1C(C)C [volasertib]
Procedure, shortened: as §1

[8] = compound: CC[C@H](C)N1C=C(C2=C(C=C(C=C21)C3=CN=C(C=C3)N4CCNCC4)C(=O)NCC5=C(C=C(NC5=O)C)C)C
Procedure, shortened: as §1

epoxomicin = compound: CC[C@H](C)[C@@H](C(=O)N[C@@H]([C@@H](C)O)C(=O)N[C@@H](CC(C)C)C(=O)[C@]1(CO1)C)NC(=O)[C@H]([C@@H](C)CC)N(C)C(=O)C [epoxomicin]
Procedure, shortened: as §1

[9] = compound: CCn1c(C(=O)N(C2CC2)C2CC2)cc2c3c(ncn3C)c(Nc3cc(C)n(C)n3)nc21
Procedure, shortened: as §1

[10] = compound: CCn1cc(-c2ccnc3[nH]c(-c4cccc(CN(C)C)c4)cc23)c(-c2ccc(NC(=O)N(C)C)cc2)n1
Procedure, shortened: as §1

[11] = compound: CN(C)CC(=O)Nc1ccc2[nH]c(=O)c3ccccc3c2c1
Procedure, shortened: as §1

rosiglitazone = compound: CN(CCOC1=CC=C(C=C1)C[C@H]2C(=O)NC(=O)S2)C3=CC=CC=N3 (racemic) [rosiglitazone]
Procedure, shortened: as §1

[12] = compound: CN1C2=C(C3=C1C(=O)N(N=C3)CC4=CC(=CC=C4)N)SC(=C2)S(=O)C
Procedure, shortened: as §1

[13] = compound: CN1CCC(CNc2ccc3ncc(-c4cccc(OC(F)(F)F)c4)n3n2)CC1
Procedure, shortened: as §1

Measured: log2 fold change

ISY1 isoform 1 (UniProt Q9ULR0)
inactive: [1] -0.026 | [2] -0.006 | [3] -0.008 | [4] -0.03 | Nexturastat A 0.03 | vemurafenib -0.032 | [5] -0.069 | [6] -0.038 | givinostat -0.025 | barasertib 0.01 | [7] 0.104 | volasertib 0.076 | [8] -0.066 | epoxomicin -0.001 | [9] 0.038 | [10] 0.005 | [11] -0.039 | rosiglitazone -0.042 | [12] -0.003 | [13] -0.061

ISOC2 (UniProt Q96AB3)
inactive: [1] 0.094 | [2] -0.096 | [3] 0.032 | [4] 0.04 | Nexturastat A -0.016 | vemurafenib -0.084 | [5] -0.016 | [6] -0.011 | givinostat -0.302 | barasertib 0.043 | [7] 0 | volasertib -0.062 | [8] -0.017 | epoxomicin 0.209 | [9] 0.059 | [11] -0.04 | rosiglitazone 0.022 | [12] 0.19

IST1 isoform 5 (UniProt P53990)
inactive: [1] 0.023 | [2] -0.012 | [3] 0.02 | [4] 0.022 | Nexturastat A -0.021 | vemurafenib 0.017 | [5] 0.038 | [6] -0.034 | givinostat 0.021 | barasertib 0.021 | [7] 0.06 | volasertib -0.003 | [8] 0.007 | epoxomicin 0.055 | [9] -0.007 | [10] -0.013 | [11] 0.045 | rosiglitazone 0.068 | [12] 0.013 | [13] 0.029

Random excerpt: two entries already listed.
IST1 isoform 5 (UniProt P53990)
inactive: [1] 0.023 | [2] -0.012 | [3] 0.02 | [4] 0.022 | Nexturastat A -0.021 | vemurafenib 0.017 | [5] 0.038 | [6] -0.034 | givinostat 0.021 | barasertib 0.021 | [7] 0.06 | volasertib -0.003 | [8] 0.007 | epoxomicin 0.055 | [9] -0.007 | [10] -0.013 | [11] 0.045 | rosiglitazone 0.068 | [12] 0.013 | [13] 0.029

ISY1 isoform 1 (UniProt Q9ULR0)
inactive: [1] -0.026 | [2] -0.006 | [3] -0.008 | [4] -0.03 | Nexturastat A 0.03 | vemurafenib -0.032 | [5] -0.069 | [6] -0.038 | givinostat -0.025 | barasertib 0.01 | [7] 0.104 | volasertib 0.076 | [8] -0.066 | epoxomicin -0.001 | [9] 0.038 | [10] 0.005 | [11] -0.039 | rosiglitazone -0.042 | [12] -0.003 | [13] -0.061

(cont.)

IGBP1 (UniProt P78318)
inactive: [1] 0.011 | [2] -0.05 | [3] 0.034 | [4] 0.039 | Nexturastat A -0.034 | vemurafenib 0.009 | [5] 0.092 | [6] -0.35 | givinostat 0.053 | barasertib 0.016 | [7] -0.044 | volasertib -0.123 | [8] 0.025 | epoxomicin 0.031 | [9] 0.027 | [10] -0.034 | [11] -0.017 | rosiglitazone 0.09 | [12] -0.027 | [13] -0.118

IMMT isoform 2 (UniProt Q16891)
inactive: [1] 0.053 | [2] 0.074 | [3] -0.05 | [4] 0.002 | Nexturastat A -0.155 | vemurafenib -0.006 | [5] 0.018 | [6] 0.325 | givinostat 0.045 | barasertib 0.081 | [7] -0.043 | volasertib -0.046 | [8] -0.002 | epoxomicin -0.052 | [10] -0.031 | [11] 0.086 | [12] 0.067 | [13] 0.249

IREB2 (UniProt P48200)
inactive: [1] 0.016 | [2] -0.013 | [3] 0.009 | [4] -0.015 | Nexturastat A 0.245 | vemurafenib 0.027 | [5] 0.053 | [6] 0.078 | givinostat -0.04 | barasertib 0.023 | [7] -0.058 | volasertib -0.126 | [8] 0.037 | epoxomicin 0.082 | [9] -0.054 | [10] -0.068 | [11] 0.039 | rosiglitazone 0.03 | [12] -0.005 | [13] -0.028

IPO5 isoform 3 (UniProt O00410)
inactive: [1] 0.026 | [2] 0.019 | [3] 0.06 | [4] 0.029 | Nexturastat A -0.122 | vemurafenib 0.059 | [5] 0.092 | [6] -0.029 | givinostat -0.08 | barasertib -0.009 | [7] -0.117 | volasertib -0.168 | [8] 0.035 | epoxomicin 0.028 | [9] 0.033 | [10] -0.09 | [11] 0.043 | rosiglitazone 0.047 | [12] -0.077 | [13] -0.169

INTS4 (UniProt Q96HW7)
inactive: [1] 0.014 | [2] -0.001 | [3] 0.004 | [4] 0.01 | Nexturastat A -0.044 | vemurafenib 0 | [5] 0.003 | [6] -0.023 | givinostat 0.001 | barasertib 0.015 | [7] 0.009 | volasertib -0.102 | [8] -0.009 | epoxomicin 0.041 | [9] -0.036 | [10] 0.015 | [11] -0.04 | rosiglitazone 0.029 | [12] -0.03 | [13] 0.035

IKBIP (UniProt Q70UQ0)
inactive: [1] -0.045 | [2] 0.019 | [3] -0.004 | [4] 0.009 | Nexturastat A 0.022 | vemurafenib -0.062 | [5] -0.023 | [6] -0.026 | givinostat -0.019 | barasertib -0.002 | [7] 0.018 | volasertib 0.014 | [8] -0.007 | epoxomicin -0.039 | [9] 0.046 | [10] -0.008 | [11] -0.031 | rosiglitazone 0.022 | [12] 0.001 | [13] 0.14

ITCH (UniProt Q96J02)
inactive: [1] 0.015 | [2] -0.031 | [3] 0 | [4] -0.009 | Nexturastat A 0.067 | vemurafenib 0.051 | [5] 0.031 | [6] 0.041 | givinostat 0.052 | barasertib 0.046 | [7] -0.059 | volasertib -0.272 | [8] 0.047 | epoxomicin 0 | [9] -0.07 | [10] -0.02 | [11] -0.033 | rosiglitazone 0.007 | [12] 0.079 | [13] -0.188

IRF3 (UniProt Q14653)
inactive: [1] 0.18 | [2] -0.081 | [3] 0.011 | [4] 0.077 | Nexturastat A -0.046 | vemurafenib 0.074 | [5] 0.098 | [6] 0.011 | givinostat 0.031 | barasertib -0.015 | [7] -0.05 | volasertib -0.1 | [8] -0.052 | epoxomicin -0.035 | [10] -0.037 | [11] 0.018 | [12] -0.024 | [13] -0.045

IFT80 isoform 3 (UniProt Q9P2H3)
active: volasertib -0.232
inactive: [1] -0.023 | [2] 0.038 | [3] 0.004 | [4] 0.005 | Nexturastat A -0.021 | vemurafenib -0.042 | [5] 0.039 | [6] -0.013 | givinostat -0.104 | barasertib -0.004 | [7] 0.039 | [8] 0.072 | epoxomicin 0.053 | [10] -0.09 | [11] 0.095 | [12] -0.084 | [13] -0.157

INTS7 (UniProt Q9NVH2)
inactive: [1] 0.134 | [2] -0.007 | [3] 0.088 | [4] 0.091 | Nexturastat A -0.001 | vemurafenib 0.039 | [5] 0.018 | [6] 0.027 | givinostat 0.242 | barasertib 0.022 | [7] 0.035 | volasertib -0.313 | [8] 0.1 | epoxomicin -0.029 | [10] -0.1 | [11] 0.038 | [12] 0.069 | [13] 0.3

IGF2BP3 (UniProt O00425)
inactive: [1] 0.077 | [2] -0.004 | [3] 0.055 | [4] -0.147 | Nexturastat A 0.427 | vemurafenib 0.03 | [5] 0.189 | [6] 0.269 | givinostat 0.113 | barasertib -0.007 | [7] 0.102 | volasertib -0.092 | [8] 0.118 | epoxomicin -0.324 | [9] 0.027 | [10] 0.141 | [11] -0.033 | rosiglitazone -0.083 | [12] 0.425 | [13] -0.036

ITFG1 (UniProt Q8TB96)
inactive: [1] -0.045 | [2] -0.026 | [3] -0.008 | [4] 0.008 | Nexturastat A -0.084 | vemurafenib 0.068 | [5] -0.038 | [6] 0.144 | givinostat -0.01 | barasertib 0.04 | [7] 0.004 | volasertib -0.075 | [8] -0.015 | epoxomicin -0.016 | [9] -0.044 | [10] 0.026 | [11] -0.08 | rosiglitazone 0.008 | [12] -0.102 | [13] 0.039
